Data source: PubChem BioAssay AID1259424 (University of Nebraska Medical Center, 2018)
This is a random part of about 14,000 reagents tested. 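Higher correlation or smaller distance means closer resemblance to KSR1 loss; control wells, including KSR1 knockdowns, recur on many plates.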 Some reagents were tested in more than one well and are listed for each. The record does not give: the time to read-out.

Purpose: 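Rank knockdowns across the genome by resemblance to the KSR1 depletion profile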 (primary screen)
Cells: human HCT116 colon cancer cells
Reagent: siRNA pool against human genes, 50 nM
Measurement: 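Log2 levels of six mRNAs (branched-DNA multiplex), adjusted by two reference genes and the non-targeting median, then scored against the average KSR1 knockdown pattern as Pearson r and euclidean distance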
Scale: mean correlation with KSR1 profile and KSR1 correlation: higher = expression change more like KSR1 knockdown; mean distance from KSR1 profile: higher = expression change less like KSR1 knockdown

no.	gene knocked down	mean correlation with KSR1 profile	mean distance from KSR1 profile	KSR1 correlation, replicate 1	KSR1 correlation, replicate 2	KSR1 correlation, replicate 3
1	NDST1	0.341	2.55	0.0418	0.0781	0.755
2	NGFR	0.323	2.11	0.338	0.302	0.278
3	ORMDL2	0.507	2.26	0.136	0.43	0.314
4	RNF126	0.252	3.49	0.263	0.361	0.173
5	LIN7B	-0.297	2.27	-0.298	-0.292	-0.439
6	WDCP	0.783	0.905	0.472	0.846	0.653
7	ELOA	0.186	1.79	0.203	0.586	0.181
8	BRCA1	-0.182	1.6	-0.31	-0.223	-0.0661
9	MTNAP1	-0.577	2.3	-0.296	-0.792	-0.568
10	GPRC5A	0.528	0.893	0.0395	0.441	0.849
11	BTC	0.0314	2.37	-0.253	0.413	0.0414
12	WT1	-0.167	2.72	-0.092	-0.298	0.259
13	ZNF528	0.841	1.03	0.756	0.797	0.751
14	GRIN1	0.499	1.86	0.571	0.396	0.487
15	BARHL1	-0.107	2.14	0.234	-0.242	-0.388
16	ENTREP1	-0.0867	3.01	-0.24	-0.087	0.132
17	VPS4A	0.504	1.88	0.329	-0.00802	0.425
18	DLK2	-0.283	5.06	-0.373	-0.463	-0.237
19	OLFM1	-0.642	2.4	-0.681	-0.497	-0.754
20	OLFM1	-0.69	3.21	-0.598	-0.721	-0.712
21	RBKS	0.631	0.972	0.789	-0.108	0.702
22	ASGR1	-0.249	2.37	-0.253	-0.162	-0.613
23	SNTG2	-0.0922	1.91	0.151	-0.118	-0.235
24	CDK8	0.322	1.75	0.355	0.268	-0.281
25	CAMSAP2	-0.585	2.45	-0.572	-0.619	-0.326
26	MRPL44	0.1	1.94	0.0538	-0.0968	-0.0589
27	SNX7	-0.167	1.86	-0.259	-0.183	-0.19
28	DACH1	0.362	1.85	0.377	0.209	0.494
29	HNRNPF	-0.101	2.47	-0.0336	-0.248	-0.0211
30	ABRAXAS1	0.294	1.73	0.159	0.2	0.365
31	PSD	-0.549	1.75	-0.455	-0.372	-0.782
32	UBXN8	-0.441	2.7	-0.258	-0.504	-0.429
33	LDLR	-0.14	1.79	0.121	-0.161	-0.374
34	LIN7A	0.537	1.03	0.646	0.561	0.418
35	DDA1	0.811	2.22	0.629	0.791	0.74
36	MMP7	0.554	1.61	0.635	0.408	0.245
37	ALX1	0.454	1.34	0.42	0.527	0.19
38	DPP10	-0.446	1.54	-0.617	-0.19	-0.21
39	S100B	0.931	0.727	0.902	0.898	0.746
40	EN1	-0.253	2.65	-0.105	-0.0148	-0.271
41	EFCAB7	0.49	1.98	0.324	0.522	0.199
42	SEPTIN9	0.463	1.81	0.438	0.331	0.00704
43	C5AR2	0.248	2.02	0.313	0.28	0.1
44	OGA	0.304	1.47	0.179	0.369	0.285
45	TARS1	-0.00611	0.999	-0.016	-0.26	0.29
46	IFNA16	-0.0849	3.57	0.0182	-0.127	-0.171
47	ABI3	-0.04	1.91	0.0512	0.246	-0.103
48	POLR2H	-0.229	2.11	-0.0856	0.00694	-0.312
49	SCT	0.23	1.49	0.0203	0.0535	0.57
50	GNG7	0.4	2.32	0.375	0.393	0.531
51	PUS7	-0.196	2.75	-0.218	-0.0827	-0.24
52	ST8SIA1	-0.508	5.61	-0.458	-0.528	-0.506
53	CTAGE1	-0.408	1.75	-0.697	-0.387	-0.541
54	RABGGTB	-0.268	6.45	-0.228	-0.313	-0.366
55	COL6A3	-0.643	2.96	-0.485	-0.642	-0.798
56	SPAG6	-0.701	3.16	-0.688	-0.571	-0.656
57	TGIF2LX	-0.118	2.35	0.328	-0.0319	-0.0535
58	CORIN	0.138	3.45	0.21	0.219	0.0251
59	RGS10	-0.215	1.38	0.205	-0.272	-0.664
60	CYP27A1	0.199	2.45	0.462	0.209	0.371
61	FBXL9P	-0.421	3.09	-0.426	-0.424	-0.5
62	TNFRSF12A	-0.0419	3.54	0.0371	0.0477	-0.195
63	CD63	-0.349	1.62	-0.276	-0.605	-0.2

5 entries from above in another layout.
{"gene knocked down":"SEPTIN9","mean correlation with KSR1 profile":0.463,"mean distance from KSR1 profile":1.81,"KSR1 correlation, replicate 1":0.438,"KSR1 correlation, replicate 2":0.331,"KSR1 correlation, replicate 3":0.00704}
{"gene knocked down":"C5AR2","mean correlation with KSR1 profile":0.248,"mean distance from KSR1 profile":2.02,"KSR1 correlation, replicate 1":0.313,"KSR1 correlation, replicate 2":0.28,"KSR1 correlation, replicate 3":0.1}
{"gene knocked down":"OGA","mean correlation with KSR1 profile":0.304,"mean distance from KSR1 profile":1.47,"KSR1 correlation, replicate 1":0.179,"KSR1 correlation, replicate 2":0.369,"KSR1 correlation, replicate 3":0.285}
{"gene knocked down":"TARS1","mean correlation with KSR1 profile":-0.00611,"mean distance from KSR1 profile":0.999,"KSR1 correlation, replicate 1":-0.016,"KSR1 correlation, replicate 2":-0.26,"KSR1 correlation, replicate 3":0.29}
{"gene knocked down":"IFNA16","mean correlation with KSR1 profile":-0.0849,"mean distance from KSR1 profile":3.57,"KSR1 correlation, replicate 1":0.0182,"KSR1 correlation, replicate 2":-0.127,"KSR1 correlation, replicate 3":-0.171}
